Among all 330,000 compounds or so, about 610 (0.18%) were called active. The inconclusive results got no clear call from the source; some entries with a clear call stand among them for comparison. The call rests on the fitted dose curve. Potencies beside an inconclusive call are fits to weak or partial responses and may not hold up.
experiment: qHTS of Yeast-based Assay for SARS-CoV PLP; further: nearly all actives have a fitted effect of over 55% in size; on activity, positive = growth rescue: 0% is about no effect; conditions: S. cerevisiae expressing SARS-CoV PLpro; Potency: growth rescue; activity, positive = growth rescue: at 32.9 µM (top of the series)
Potency means the concentration at half of the fitted maximal effect.

SMILES | Potency | activity, positive = growth rescue
C[C@@H]1CCC[C@H](C)N1NC(=O)c1ccc(Cl)c(S(N)(=O)=O)c1 | inconclusive: 14.1 µM [activator, partial curve, poor fit] | –
COc1cc(/C=N/NC(=O)c2ccc(O)cc2)ccc1OCC(=O)Nc1cccc([N+](=O)[O-])c1 | inactive | –
COc1ccccc1CN1CC(C(=O)NCc2cc(C)on2)CCC1=O (stereo not given) | inconclusive: 3.16 µM [activator, single point] | –
CCCCC(=O)Nc1ccccc1C(=O)OCC(=O)c1ccc2c(c1)OCCO2 | inconclusive: 20 µM [activator, single point] | –
COc1ccc(-n2c(O)c(C=NCCCn3ccnc3)c(=O)[nH]c2=O)cc1 | inconclusive: 3.98 µM [activator, single point] | –
CC(C)OC(=O)c1cc2ccccc2oc1=O | inconclusive: 0.355 µM [activator, full curve, poor fit] | –
CCCC1C2CN(C(C)=O)CC=C2C(C#N)=C(N)C1(C#N)C#N (stereo not given) | inconclusive: 3.98 µM [activator, single point] | –
COc1ccc(OCc2cc(C(=O)N(C)CCC3CCOCC3)no2)c(Cl)c1 | inactive | –
Cc1ccc(NC(=O)c2ccc(Cn3cc([N+](=O)[O-])cn3)cc2)c(C)c1 | inactive | –
O=C(Nc1ccc(N2CCOCC2)cc1)c1cc2ccccc2o1 | inactive | –
CCc1ccc(N(CC(=O)NC2CCCC2)C(=O)CCC(=O)Nc2ccccn2)cc1 | inactive | –
CSc1ccccc1C(=O)NC1CCCN(Cc2ccccc2F)C1 (stereo not given) | inconclusive: 3.98 µM [activator, single point] | –
Cc1ccc(NC(=O)c2nc[nH]c2C(=O)NCCCCCCNC(=O)c2[nH]cnc2C(=O)Nc2ccc(C)cc2)cc1 | active: 12.6 µM | –
CCn1nc(C(=O)Nc2ccccc2N2CCCC2)c2ccccc2c1=O | inactive | –
CN1/C(=C\C(=S)NC(=O)c2ccccc2Cl)C(C)(C)c2ccccc21 | inconclusive: 22.4 µM [activator, single point] | –
COC(=O)c1nnn(Cc2ccccc2)c1N | inactive | –
O=C1c2ccccc2C(=O)N1c1ccc(Br)c2cccnc12 | inactive | –
CSCC(C)N1CCC(N2CCC(C(=O)NCc3ccccn3)CC2)CC1 (stereo not given) | inconclusive: 20 µM [activator, single point] | –
O=C1c2ccccc2C(=O)N1/N=C/c1ccc(O)c(O)c1O | – | inconclusive: 38.7% [activator]
CCCCn1c(N)c(N(CC(C)C)C(=O)COC(=O)Cc2c(C)nc3ccccc3c2C)c(=O)[nH]c1=O | inactive | –
Cc1cc(OC(C)C(=O)NC2CCN(Cc3ccccc3)CC2)c2c(C)cc(=O)oc2c1 (stereo not given) | inconclusive: 12.6 µM [activator, single point] | –
COc1ccc(C(=O)NCC(=O)OCC(=O)NC(=O)NC2CCCCC2)cc1OC | inconclusive: 12.6 µM [activator, single point] | –
O=C(CN1CCN(Cc2ccc(F)cc2Cl)C1=O)NCCCN1CCOCC1 | inconclusive: 2.82 µM [activator, partial curve] | –

SMILES | Potency | activity, positive = growth rescue
CC(C)CN(CC(C)C)C(=O)C12CCC(C)(C(=O)C1)C2(C)C (stereo not given) | inconclusive: 20 µM [activator, single point] | –
COc1cc2c(cc1OC)C1=C(C#N)CC/C(=N\S(=O)(=O)c3ccccc3)N1CC2 | inconclusive: 0.398 µM [activator, full curve] | –
CCOn1c(=O)c(-c2ccc(OC)cc2)[n+]([O-])c2ccccc21 | inconclusive: 8.91 µM [activator, partial curve] | –
CC1=NN(c2ccccc2)C(=O)C1c1ccccc1 (stereo not given) | active: 14.1 µM | –
O=C(NCCc1ccccc1)NC1CCCCC1 | inconclusive: 14.1 µM [activator, single point] | –
CC(C)(CNC(=O)c1sc2cc(F)ccc2c1Cl)N1CCOCC1 | inconclusive: 20 µM [activator, single point] | –
Nc1nonc1-n1nnc(C(=O)N/N=C/c2ccncc2)c1-c1cccs1 | inconclusive: 2.82 µM [activator, full curve] | –
CCOc1ccc(S(=O)(=O)n2cnc3cc(C)c(C)cc32)cc1 | inconclusive: 3.98 µM [activator, single point] | –
Cc1ccc(Cn2cnc3ccccc32)cc1 | inconclusive: 15.8 µM [activator, single point] | –
CCC1C(=O)Nc2nc(-c3ccccc3)c(-c3ccccc3)n2N=C1C (stereo not given) | inconclusive: 4.47 µM [activator, single point] | –
Oc1c(CN2CCN(c3ccccc3)CC2)cc(Br)c2cccnc12 | inconclusive: 20 µM [activator, single point] | –
CCN(CC)c1ccc(/C=N/NC(=O)Cc2cccs2)c(O)c1 | active: 5.01 µM | –
Cc1ccc(OCC(O)CN2CCN(CC(O)COc3ccc(C)cc3Cl)CC2)c(Cl)c1 (stereo not given) | inconclusive: 20 µM [activator, single point] | –
O=C(CCSCCC(=O)NCc1ccco1)NCc1ccco1 | inactive | –
CCCNC(=O)c1ccc(Cn2c(=S)[nH]c3c([nH]c4ccc(OC)cc43)c2=O)cc1 | active: 14.1 µM | –
C=CCn1c(-c2cccc(OC)c2)nc2nc3ccccc3nc21 | inconclusive: 4.47 µM [activator, single point] | –
CCOC(=O)CCCNC(=O)CSc1nnc(-c2ccccc2)c(-c2ccccc2)n1 | inactive | –
CCOc1ccc(S(=O)(=O)n2c(C)nc3ccccc32)cc1 | inconclusive: 5.62 µM [activator, partial curve] | –
CCN(C(=O)Cc1c(C(=O)O)[nH]c2ccccc12)c1cc(OC)ccc1OC | inconclusive: 3.55 µM [activator, single point] | –
CCOC(=O)c1c(NC(=S)NC(=O)c2ccco2)sc2c1CCCC2 | inconclusive: 3.98 µM [activator, single point] | –
Cc1cccc(NS(=O)(=O)c2nnc(NC(=O)C3CCCCC3)s2)c1 | inconclusive: 20 µM [activator, single point] | –
S=C(Nc1ccc(Br)cc1)NC1CCCC1 | inconclusive: 14.1 µM [activator, partial curve] | –

Part of the list above, reformatted.

| SMILES | Potency | activity, positive = growth rescue |
| --- | --- | --- |
| COc1cc2c(cc1OC)C1=C(C#N)CC/C(=N\S(=O)(=O)c3ccccc3)N1CC2 | inconclusive: 0.398 µM [activator, full curve] | – |
| CCOn1c(=O)c(-c2ccc(OC)cc2)[n+]([O-])c2ccccc21 | inconclusive: 8.91 µM [activator, partial curve] | – |
| CC1=NN(c2ccccc2)C(=O)C1c1ccccc1 (stereo not given) | active: 14.1 µM | – |

— PubChem BioAssay AID485353 (National Center for Advancing Translational Sciences (NCATS), 2010)
